This is an account of results in patent US20090012270A1 (MEDICAL RESEARCH COUNCIL, published 2009).

No constants are given. Whether binding was seen depends on the method and setting. Some binding calls cover weakened binding; strength is not graded here. Sequences can lack the tags named with a protein.

The assay has as its target T1, rat OX2 receptor homolog 1 (OX2RH1) (rat) (UniProt Q9ES58).
T1 sequence: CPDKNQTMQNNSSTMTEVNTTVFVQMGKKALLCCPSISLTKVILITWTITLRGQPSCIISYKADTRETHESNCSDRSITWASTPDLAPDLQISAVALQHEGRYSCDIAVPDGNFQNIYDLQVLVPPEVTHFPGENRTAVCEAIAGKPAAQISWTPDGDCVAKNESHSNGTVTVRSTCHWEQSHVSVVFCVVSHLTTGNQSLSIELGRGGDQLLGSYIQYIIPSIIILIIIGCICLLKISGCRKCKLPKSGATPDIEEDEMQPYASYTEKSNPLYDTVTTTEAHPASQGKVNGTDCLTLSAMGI
Nature of the assay: fluorescent bead assay with rat peritoneal macrophages.

B1: recombinant rat OX2-CD4 fusion protein on fluorescent beads (ligand, UniProt P04218 31-232, looked up)
chain: QVEVVTQDERKLLHTTASLRCSLKTTQEPLIVTWQKKKAVGPENMVTYSKAHGVVIQPTYKDRINITELGLLNTSITFWNTTLDDEGCYMCLFNMFGSGKVSGTACLTLYVQPIVHLHYNYFEDHLNITCSATARPAPAISWKGTGSGIENSTESHSHSNGTTSVTSILRVKDPKTQVGKEVICQVLYLGNVIDYKQSLDKGFASTSITAYKSEGESAEFSFPLNLGEESLQGELRWKAEKAPSSQSWITFSLKNQKVSVQKSTSNPKFQLSETLPLTLQIPQVSLQFAGSGNLTLTLDRGILYQEVNLVVMKVTQPDSNTLTCEVMGPTSPKMRLILKQENQEARVSRQEKVIQVQAPEAGVWQCLLSEGEEVKMDSKIQVLSKGLNQT
Regarding B1, the binding result is given as “binds”.
